According to the supplement of paper PMC12823440, “Inhibitors supercharge kinase turnover through native proteolytic circuits” (Nature, 2025):
Counter-ions that a name gives are not always drawn. The list shows a part of the results. The calls rarely recur for the same compound in another form.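 Kinases were expressed as nanoluciferase fusions in K562 cells and luminescence was read every 4 h between 2 and 18 h as percent of control, DMSO set to 100% and a positive control to 0%. A time point counts as decreased when the signal drops significantly (2 sigma). The hit call is the authors' own, does not follow from the count of time points alone, and its rule is not shown.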

Chains of the proteins cited; added tags and fusions are not shown. Lines headed by an entry give the natural chain unless they say otherwise; changes in a name come on top.
UniProt P22607, whole entry, looked up: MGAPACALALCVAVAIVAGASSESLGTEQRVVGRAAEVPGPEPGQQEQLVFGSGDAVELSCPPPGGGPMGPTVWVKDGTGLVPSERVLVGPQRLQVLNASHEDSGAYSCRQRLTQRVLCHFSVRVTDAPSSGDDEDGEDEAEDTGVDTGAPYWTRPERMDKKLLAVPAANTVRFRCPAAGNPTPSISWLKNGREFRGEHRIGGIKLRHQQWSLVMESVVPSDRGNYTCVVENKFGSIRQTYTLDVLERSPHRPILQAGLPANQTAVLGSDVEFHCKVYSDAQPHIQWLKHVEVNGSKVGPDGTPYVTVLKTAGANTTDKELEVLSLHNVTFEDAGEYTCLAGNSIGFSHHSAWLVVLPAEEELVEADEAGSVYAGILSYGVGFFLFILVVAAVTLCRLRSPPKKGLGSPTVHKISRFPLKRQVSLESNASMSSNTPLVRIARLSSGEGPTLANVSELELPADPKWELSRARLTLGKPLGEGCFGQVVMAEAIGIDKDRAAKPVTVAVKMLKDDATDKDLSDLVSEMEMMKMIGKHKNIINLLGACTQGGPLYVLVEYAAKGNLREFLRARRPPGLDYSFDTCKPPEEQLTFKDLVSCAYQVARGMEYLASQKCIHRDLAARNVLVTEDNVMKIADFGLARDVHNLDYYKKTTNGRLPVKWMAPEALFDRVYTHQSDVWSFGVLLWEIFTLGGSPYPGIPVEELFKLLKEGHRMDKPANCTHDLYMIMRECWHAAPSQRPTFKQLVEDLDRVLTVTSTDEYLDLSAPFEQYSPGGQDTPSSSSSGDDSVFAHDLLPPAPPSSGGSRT
UniProt P36888, whole entry: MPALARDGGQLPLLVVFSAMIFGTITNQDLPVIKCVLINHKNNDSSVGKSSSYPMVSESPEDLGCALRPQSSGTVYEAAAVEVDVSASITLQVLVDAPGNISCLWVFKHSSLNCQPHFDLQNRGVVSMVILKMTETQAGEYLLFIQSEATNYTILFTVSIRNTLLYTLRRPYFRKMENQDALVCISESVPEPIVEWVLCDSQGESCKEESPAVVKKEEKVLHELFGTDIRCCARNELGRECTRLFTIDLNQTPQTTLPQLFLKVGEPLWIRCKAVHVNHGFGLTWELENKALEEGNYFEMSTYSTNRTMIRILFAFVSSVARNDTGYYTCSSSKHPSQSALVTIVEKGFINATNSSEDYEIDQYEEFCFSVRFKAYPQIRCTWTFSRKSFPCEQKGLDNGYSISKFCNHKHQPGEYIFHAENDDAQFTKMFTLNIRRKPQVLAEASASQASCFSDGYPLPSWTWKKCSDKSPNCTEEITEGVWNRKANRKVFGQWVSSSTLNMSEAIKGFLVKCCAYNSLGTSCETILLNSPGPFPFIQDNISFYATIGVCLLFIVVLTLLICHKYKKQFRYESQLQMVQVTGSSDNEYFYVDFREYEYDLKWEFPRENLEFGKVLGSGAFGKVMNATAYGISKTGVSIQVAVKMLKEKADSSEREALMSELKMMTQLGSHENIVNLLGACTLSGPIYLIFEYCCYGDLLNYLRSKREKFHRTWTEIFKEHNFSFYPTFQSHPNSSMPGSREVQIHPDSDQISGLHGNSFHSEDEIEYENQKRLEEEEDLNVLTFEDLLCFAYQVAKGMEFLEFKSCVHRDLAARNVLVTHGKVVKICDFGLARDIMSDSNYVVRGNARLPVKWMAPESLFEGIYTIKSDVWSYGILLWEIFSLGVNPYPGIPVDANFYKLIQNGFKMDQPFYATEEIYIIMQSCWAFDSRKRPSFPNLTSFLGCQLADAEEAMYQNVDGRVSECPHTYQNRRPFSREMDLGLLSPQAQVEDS
UniProt P49840: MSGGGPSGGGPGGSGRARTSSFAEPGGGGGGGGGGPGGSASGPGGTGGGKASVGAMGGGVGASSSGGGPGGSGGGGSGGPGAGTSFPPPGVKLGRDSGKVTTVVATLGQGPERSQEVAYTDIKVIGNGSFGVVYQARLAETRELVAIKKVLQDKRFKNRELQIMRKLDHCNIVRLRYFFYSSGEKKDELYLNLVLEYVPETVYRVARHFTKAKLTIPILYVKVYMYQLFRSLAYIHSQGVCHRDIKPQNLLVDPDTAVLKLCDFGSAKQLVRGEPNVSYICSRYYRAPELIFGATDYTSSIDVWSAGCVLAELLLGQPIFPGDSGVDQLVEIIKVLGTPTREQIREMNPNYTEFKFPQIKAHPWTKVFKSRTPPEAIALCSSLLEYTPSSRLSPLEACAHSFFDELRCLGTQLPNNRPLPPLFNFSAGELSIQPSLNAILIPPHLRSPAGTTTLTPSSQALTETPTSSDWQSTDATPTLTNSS
UniProt P23458: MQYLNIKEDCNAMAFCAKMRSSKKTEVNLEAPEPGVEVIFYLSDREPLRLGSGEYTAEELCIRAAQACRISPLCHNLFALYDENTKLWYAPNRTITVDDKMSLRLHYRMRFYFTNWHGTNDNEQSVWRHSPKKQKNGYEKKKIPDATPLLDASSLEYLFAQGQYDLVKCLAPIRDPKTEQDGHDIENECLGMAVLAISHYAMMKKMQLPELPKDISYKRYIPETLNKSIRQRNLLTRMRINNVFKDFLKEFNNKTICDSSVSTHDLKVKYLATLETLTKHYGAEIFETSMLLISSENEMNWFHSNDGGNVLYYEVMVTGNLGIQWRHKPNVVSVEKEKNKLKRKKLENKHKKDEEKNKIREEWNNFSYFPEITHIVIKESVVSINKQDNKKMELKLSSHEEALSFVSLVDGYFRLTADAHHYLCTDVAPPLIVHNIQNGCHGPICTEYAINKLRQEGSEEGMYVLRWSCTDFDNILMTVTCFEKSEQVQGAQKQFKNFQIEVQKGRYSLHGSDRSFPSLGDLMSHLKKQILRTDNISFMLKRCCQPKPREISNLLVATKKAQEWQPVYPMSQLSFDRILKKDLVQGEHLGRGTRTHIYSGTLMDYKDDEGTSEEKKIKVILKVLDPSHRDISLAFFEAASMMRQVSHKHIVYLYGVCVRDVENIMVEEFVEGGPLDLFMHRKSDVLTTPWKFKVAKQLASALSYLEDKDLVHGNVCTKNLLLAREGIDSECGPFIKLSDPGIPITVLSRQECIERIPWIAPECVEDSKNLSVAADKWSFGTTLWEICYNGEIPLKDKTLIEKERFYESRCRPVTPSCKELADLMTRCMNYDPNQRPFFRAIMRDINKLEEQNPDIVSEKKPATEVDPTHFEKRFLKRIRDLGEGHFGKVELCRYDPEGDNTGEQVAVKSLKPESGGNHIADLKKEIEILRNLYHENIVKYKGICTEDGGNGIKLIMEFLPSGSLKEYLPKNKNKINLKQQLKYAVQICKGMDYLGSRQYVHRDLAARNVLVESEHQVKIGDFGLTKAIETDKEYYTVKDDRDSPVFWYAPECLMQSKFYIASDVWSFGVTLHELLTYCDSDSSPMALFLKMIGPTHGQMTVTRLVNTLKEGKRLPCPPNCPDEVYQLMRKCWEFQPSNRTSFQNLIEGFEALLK
UniProt P53667: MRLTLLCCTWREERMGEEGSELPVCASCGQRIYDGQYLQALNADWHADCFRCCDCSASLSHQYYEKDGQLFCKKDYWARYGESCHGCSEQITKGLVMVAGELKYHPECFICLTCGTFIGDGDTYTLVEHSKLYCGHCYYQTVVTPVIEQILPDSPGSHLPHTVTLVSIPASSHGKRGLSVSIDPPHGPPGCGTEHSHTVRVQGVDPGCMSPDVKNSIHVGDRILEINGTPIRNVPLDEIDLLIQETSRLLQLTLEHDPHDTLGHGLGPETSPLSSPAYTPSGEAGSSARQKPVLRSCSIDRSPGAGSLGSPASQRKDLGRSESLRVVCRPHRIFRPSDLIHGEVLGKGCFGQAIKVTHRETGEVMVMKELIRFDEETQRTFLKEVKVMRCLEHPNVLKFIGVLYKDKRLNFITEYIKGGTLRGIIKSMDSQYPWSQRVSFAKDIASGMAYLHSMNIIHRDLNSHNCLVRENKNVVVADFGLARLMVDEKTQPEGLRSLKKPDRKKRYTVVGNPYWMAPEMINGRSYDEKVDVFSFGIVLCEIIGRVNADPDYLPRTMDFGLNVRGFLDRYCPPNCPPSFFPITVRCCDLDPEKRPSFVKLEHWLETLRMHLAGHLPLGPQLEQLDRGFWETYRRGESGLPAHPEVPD
UniProt Q8IWU2: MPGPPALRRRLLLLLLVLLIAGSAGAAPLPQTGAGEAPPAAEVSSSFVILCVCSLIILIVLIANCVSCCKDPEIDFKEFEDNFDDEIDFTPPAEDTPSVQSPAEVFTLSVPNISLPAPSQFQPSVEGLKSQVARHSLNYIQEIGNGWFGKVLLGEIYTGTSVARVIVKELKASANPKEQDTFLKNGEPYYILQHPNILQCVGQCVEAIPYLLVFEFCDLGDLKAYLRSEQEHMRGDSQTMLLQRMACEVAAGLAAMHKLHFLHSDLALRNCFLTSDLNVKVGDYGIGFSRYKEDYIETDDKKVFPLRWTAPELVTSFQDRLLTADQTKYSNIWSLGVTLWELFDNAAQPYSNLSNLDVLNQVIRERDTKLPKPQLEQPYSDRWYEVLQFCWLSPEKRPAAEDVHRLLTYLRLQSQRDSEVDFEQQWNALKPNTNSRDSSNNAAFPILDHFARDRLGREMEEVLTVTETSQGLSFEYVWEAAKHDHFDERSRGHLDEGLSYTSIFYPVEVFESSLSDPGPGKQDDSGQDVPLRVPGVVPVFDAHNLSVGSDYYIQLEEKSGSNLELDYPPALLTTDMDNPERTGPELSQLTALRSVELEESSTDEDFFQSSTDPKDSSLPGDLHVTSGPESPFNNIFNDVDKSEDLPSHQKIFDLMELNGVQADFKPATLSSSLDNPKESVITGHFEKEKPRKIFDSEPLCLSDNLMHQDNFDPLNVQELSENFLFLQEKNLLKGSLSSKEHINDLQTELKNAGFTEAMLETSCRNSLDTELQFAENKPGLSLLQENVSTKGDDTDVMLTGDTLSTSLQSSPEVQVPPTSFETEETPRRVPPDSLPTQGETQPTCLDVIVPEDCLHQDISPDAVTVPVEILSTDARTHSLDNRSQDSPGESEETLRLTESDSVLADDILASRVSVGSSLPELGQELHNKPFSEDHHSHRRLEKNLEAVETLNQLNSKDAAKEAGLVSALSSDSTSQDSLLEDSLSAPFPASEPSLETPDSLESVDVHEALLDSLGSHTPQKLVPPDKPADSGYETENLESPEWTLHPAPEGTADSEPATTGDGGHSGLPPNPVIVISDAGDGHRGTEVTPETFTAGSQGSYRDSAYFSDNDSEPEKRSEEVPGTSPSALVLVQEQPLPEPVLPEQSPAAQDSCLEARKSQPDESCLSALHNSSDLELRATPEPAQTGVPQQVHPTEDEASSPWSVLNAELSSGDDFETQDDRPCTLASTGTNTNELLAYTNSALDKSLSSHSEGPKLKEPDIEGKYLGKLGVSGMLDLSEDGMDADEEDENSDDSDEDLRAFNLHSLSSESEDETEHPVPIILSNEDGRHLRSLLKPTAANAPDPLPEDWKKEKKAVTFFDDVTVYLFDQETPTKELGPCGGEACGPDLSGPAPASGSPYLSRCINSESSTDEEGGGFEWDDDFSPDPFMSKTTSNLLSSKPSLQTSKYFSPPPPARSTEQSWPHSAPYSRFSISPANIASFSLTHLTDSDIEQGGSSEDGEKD
UniProt Q12851: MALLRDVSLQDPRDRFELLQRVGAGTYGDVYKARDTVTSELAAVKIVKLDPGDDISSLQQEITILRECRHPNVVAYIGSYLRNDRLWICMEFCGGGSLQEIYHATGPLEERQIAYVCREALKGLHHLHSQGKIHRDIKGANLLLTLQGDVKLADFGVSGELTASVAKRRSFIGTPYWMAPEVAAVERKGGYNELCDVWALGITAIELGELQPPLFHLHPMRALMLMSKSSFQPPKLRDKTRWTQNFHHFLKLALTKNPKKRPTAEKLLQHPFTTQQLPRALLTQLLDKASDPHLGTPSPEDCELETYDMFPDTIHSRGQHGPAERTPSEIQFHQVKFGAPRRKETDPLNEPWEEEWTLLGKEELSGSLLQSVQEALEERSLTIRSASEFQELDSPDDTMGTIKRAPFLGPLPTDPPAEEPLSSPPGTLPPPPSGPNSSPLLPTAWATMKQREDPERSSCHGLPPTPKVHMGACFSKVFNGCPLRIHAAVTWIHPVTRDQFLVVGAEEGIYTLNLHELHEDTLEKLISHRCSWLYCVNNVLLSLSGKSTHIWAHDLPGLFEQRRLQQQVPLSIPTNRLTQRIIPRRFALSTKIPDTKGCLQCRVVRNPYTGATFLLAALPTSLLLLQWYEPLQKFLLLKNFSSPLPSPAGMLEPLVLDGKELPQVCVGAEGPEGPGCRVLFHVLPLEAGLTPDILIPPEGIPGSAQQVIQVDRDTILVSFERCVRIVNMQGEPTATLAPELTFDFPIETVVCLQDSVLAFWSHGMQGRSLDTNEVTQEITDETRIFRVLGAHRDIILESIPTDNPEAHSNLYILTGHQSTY

Key:
Experiment in all cases: kinase-Nluc reporter destabilization hit call (1 = scored as downregulated) (binary); higher = compound decreases kinase abundance
Conditions in all cases: K562, 2-18 h
ERN1 = ERN1 (UniProt O75460)
FGFR1 = FGFR1 (UniProt P11362)
FGFR2 = FGFR2 (UniProt P21802)
FGFR3 = FGFR3 (UniProt P22607)
FGR = FGR (UniProt P09769)
FLT3 = FLT3 (UniProt P36888)
FYN = FYN (UniProt P06241)
GSK3A = GSK3A (UniProt P49840)
HER2 = HER2 (UniProt P04626)
INSRR = INSRR (UniProt P14616)
IRAK3 = IRAK3 (UniProt Q9Y616)
JAK1 = JAK1 (UniProt P23458)
LCK = LCK (UniProt P06239)
LIMK1 = LIMK1 (UniProt P53667)
LIMK2 = LIMK2 (UniProt P53671)
LMTK2 = LMTK2 (UniProt Q8IWU2)
LYN = LYN (UniProt P07948)
MAP2K1 = MAP2K1 (UniProt Q02750)
MAP2K2 = MAP2K2 (UniProt P36507)
MAP4K2 = MAP4K2 (UniProt Q12851)

Measured: kinase-Nluc reporter destabilization hit call

CN(C)C(=O)c1cc2cnc(Nc3ccc(N4CCNCC4)cn3)nc2n1C1CCCC1 [Ribociclib]
inactive: ERN1; 10 µM 0 | FGFR1; 10 µM 0 | FGFR2; 10 µM 0 | FGFR3; 10 µM 0 | FGR; 10 µM 0 | FLT3; 10 µM 0 | FYN; 10 µM 0 | GSK3A; 10 µM 0 | HER2; 10 µM 0 | INSRR; 10 µM 0 | IRAK3; 10 µM 0 | JAK1; 10 µM 0 | LCK; 10 µM 0 | LIMK1; 10 µM 0 | LIMK2; 10 µM 0 | LMTK2; 10 µM 0 | LYN; 10 µM 0 | MAP2K1; 10 µM 0 | MAP2K2; 10 µM 0 | MAP4K2; 10 µM 0

CN1CCCN(C(=O)c2cccc(-c3ccc(/C=C4/C(=O)Nc5ccc(Cl)cc54)o3)c2)CC1
inactive: ERN1; 2.5 µM 0 | FGFR1; 2.5 µM 0 | FGFR2; 2.5 µM 0 | FGFR3; 2.5 µM 0 | FGR; 2.5 µM 0 | FLT3; 2.5 µM 0 | FYN; 2.5 µM 0 | GSK3A; 2.5 µM 0 | HER2; 2.5 µM 0 | INSRR; 2.5 µM 0 | IRAK3; 2.5 µM 0 | JAK1; 2.5 µM 0 | LCK; 2.5 µM 0 | LIMK1; 2.5 µM 0 | LIMK2; 2.5 µM 0 | LMTK2; 2.5 µM 0 | LYN; 2.5 µM 0 | MAP2K1; 2.5 µM 0 | MAP2K2; 2.5 µM 0 | MAP4K2; 2.5 µM 0

COc1ccc(S(=O)(=O)Nc2ccccc2CN(C)C/C=C/c2ccc(Cl)cc2)cc1 [KN-92 (phosphate)]
inactive: ERN1; 2.5 µM 0 | FGFR1; 2.5 µM 0 | FGFR2; 2.5 µM 0 | FGFR3; 2.5 µM 0 | FGR; 2.5 µM 0 | FLT3; 2.5 µM 0 | FYN; 2.5 µM 0 | GSK3A; 2.5 µM 0 | HER2; 2.5 µM 0 | INSRR; 2.5 µM 0 | IRAK3; 2.5 µM 0 | JAK1; 2.5 µM 0 | LCK; 2.5 µM 0 | LIMK1; 2.5 µM 0 | LIMK2; 2.5 µM 0 | LMTK2; 2.5 µM 0 | LYN; 2.5 µM 0 | MAP2K1; 2.5 µM 0 | MAP2K2; 2.5 µM 0 | MAP4K2; 2.5 µM 0

COc1ncc(F)cc1CNc1ccc(Cc2c[nH]c3ncc(C)cc23)c(F)n1 [PLX5622 (hemifumarate)]
inactive: ERN1; 10 µM 0 | FGFR1; 10 µM 0 | FGFR2; 10 µM 0 | FGFR3; 10 µM 0 | FGR; 10 µM 0 | FLT3; 10 µM 0 | FYN; 10 µM 0 | GSK3A; 10 µM 0 | HER2; 10 µM 0 | INSRR; 10 µM 0 | IRAK3; 10 µM 0 | JAK1; 10 µM 0 | LCK; 10 µM 0 | LIMK1; 10 µM 0 | LIMK2; 10 µM 0 | LMTK2; 10 µM 0 | LYN; 10 µM 0 | MAP2K1; 10 µM 0 | MAP2K2; 10 µM 0 | MAP4K2; 10 µM 0

CC(C)Nc1cc(-c2c[nH]c(C(=O)N[C@H](CO)c3cccc(Cl)c3)c2)c(Cl)cn1 [Ulixertinib]
inactive: ERN1; 10 µM 0 | FGFR1; 10 µM 0 | FGFR2; 10 µM 0 | FGFR3; 10 µM 0 | FGR; 10 µM 0 | FLT3; 10 µM 0 | FYN; 10 µM 0 | GSK3A; 10 µM 0 | HER2; 10 µM 0 | INSRR; 10 µM 0 | IRAK3; 10 µM 0 | JAK1; 10 µM 0 | LCK; 10 µM 0 | LIMK1; 10 µM 0 | LIMK2; 10 µM 0 | LMTK2; 10 µM 0 | LYN; 10 µM 0 | MAP2K1; 10 µM 0 | MAP2K2; 10 µM 0 | MAP4K2; 10 µM 0

C[C@H](Nc1cc(-c2cnn(C)c2)cc(Nc2cnccn2)n1)c1ccc(F)cc1 [Ilginatinib]
inactive: ERN1; 2.5 µM 0 | FGFR1; 2.5 µM 0 | FGFR2; 2.5 µM 0 | FGFR3; 2.5 µM 0 | FGR; 2.5 µM 0 | FLT3; 2.5 µM 0 | FYN; 2.5 µM 0 | GSK3A; 2.5 µM 0 | HER2; 2.5 µM 0 | INSRR; 2.5 µM 0 | IRAK3; 2.5 µM 0 | JAK1; 2.5 µM 0 | LCK; 2.5 µM 0 | LIMK1; 2.5 µM 0 | LIMK2; 2.5 µM 0 | LMTK2; 2.5 µM 0 | LYN; 2.5 µM 0 | MAP2K1; 2.5 µM 0 | MAP2K2; 2.5 µM 0 | MAP4K2; 2.5 µM 0

N#CCC1(n2cc(-c3ncnc4[nH]ccc34)cn2)CN(C2CCN(C(=O)c3ccnc(C(F)(F)F)c3F)CC2)C1 [Itacitinib]
inactive: ERN1; 10 µM 0 | FGFR1; 10 µM 0 | FGFR2; 10 µM 0 | FGFR3; 10 µM 0 | FGR; 10 µM 0 | FLT3; 10 µM 0 | FYN; 10 µM 0 | GSK3A; 10 µM 0 | HER2; 10 µM 0 | INSRR; 10 µM 0 | IRAK3; 10 µM 0 | JAK1; 10 µM 0 | LCK; 10 µM 0 | LIMK1; 10 µM 0 | LIMK2; 10 µM 0 | LMTK2; 10 µM 0 | LYN; 10 µM 0 | MAP2K1; 10 µM 0 | MAP2K2; 10 µM 0 | MAP4K2; 10 µM 0

C#Cc1cccc(Nc2ncnc3cc4c(cc23)OCCOCCOCCO4)c1 [Icotinib (Hydrochloride)]
inactive: ERN1; 10 µM 0 | FGFR1; 10 µM 0 | FGFR2; 10 µM 0 | FGFR3; 10 µM 0 | FGR; 10 µM 0 | FLT3; 10 µM 0 | FYN; 10 µM 0 | GSK3A; 10 µM 0 | HER2; 10 µM 0 | INSRR; 10 µM 0 | IRAK3; 10 µM 0 | JAK1; 10 µM 0 | LCK; 10 µM 0 | LIMK1; 10 µM 0 | LIMK2; 10 µM 0 | LMTK2; 10 µM 0 | LYN; 10 µM 0 | MAP2K1; 10 µM 0 | MAP2K2; 10 µM 0 | MAP4K2; 10 µM 0

FC(F)(F)c1ccc(CNc2ccc(Cc3c[nH]c4ncc(Cl)cc34)cn2)cn1 [Pexidartinib]
inactive: ERN1; 10 µM 0 | FGFR1; 10 µM 0 | FGFR2; 10 µM 0 | FGFR3; 10 µM 0 | FGR; 10 µM 0 | FLT3; 10 µM 0 | FYN; 10 µM 0 | GSK3A; 10 µM 0 | HER2; 10 µM 0 | INSRR; 10 µM 0 | IRAK3; 10 µM 0 | JAK1; 10 µM 0 | LCK; 10 µM 0 | LIMK1; 10 µM 0 | LIMK2; 10 µM 0 | LMTK2; 10 µM 0 | LYN; 10 µM 0 | MAP2K1; 10 µM 0 | MAP2K2; 10 µM 0 | MAP4K2; 10 µM 0
